{"sequences": {"note": "The chains behind the UniProt entries cited, without tags or fusion partners. Where a name states a change or a piece, a line headed by the entry shows the natural chain unless it says otherwise.", "UniProt Q16576, whole entry, looked up": "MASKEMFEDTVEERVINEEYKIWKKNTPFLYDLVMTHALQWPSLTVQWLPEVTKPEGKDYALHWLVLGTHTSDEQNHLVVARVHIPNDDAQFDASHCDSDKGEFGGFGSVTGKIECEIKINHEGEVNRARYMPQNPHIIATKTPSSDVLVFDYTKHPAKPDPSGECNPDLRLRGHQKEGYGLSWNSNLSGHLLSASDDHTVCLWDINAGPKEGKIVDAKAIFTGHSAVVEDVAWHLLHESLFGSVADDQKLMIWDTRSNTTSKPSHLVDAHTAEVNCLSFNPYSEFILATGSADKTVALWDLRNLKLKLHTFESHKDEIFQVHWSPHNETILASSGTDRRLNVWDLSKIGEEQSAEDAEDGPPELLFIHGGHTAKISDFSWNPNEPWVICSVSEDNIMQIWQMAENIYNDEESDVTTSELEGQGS", "UniProt Q15418, whole entry": "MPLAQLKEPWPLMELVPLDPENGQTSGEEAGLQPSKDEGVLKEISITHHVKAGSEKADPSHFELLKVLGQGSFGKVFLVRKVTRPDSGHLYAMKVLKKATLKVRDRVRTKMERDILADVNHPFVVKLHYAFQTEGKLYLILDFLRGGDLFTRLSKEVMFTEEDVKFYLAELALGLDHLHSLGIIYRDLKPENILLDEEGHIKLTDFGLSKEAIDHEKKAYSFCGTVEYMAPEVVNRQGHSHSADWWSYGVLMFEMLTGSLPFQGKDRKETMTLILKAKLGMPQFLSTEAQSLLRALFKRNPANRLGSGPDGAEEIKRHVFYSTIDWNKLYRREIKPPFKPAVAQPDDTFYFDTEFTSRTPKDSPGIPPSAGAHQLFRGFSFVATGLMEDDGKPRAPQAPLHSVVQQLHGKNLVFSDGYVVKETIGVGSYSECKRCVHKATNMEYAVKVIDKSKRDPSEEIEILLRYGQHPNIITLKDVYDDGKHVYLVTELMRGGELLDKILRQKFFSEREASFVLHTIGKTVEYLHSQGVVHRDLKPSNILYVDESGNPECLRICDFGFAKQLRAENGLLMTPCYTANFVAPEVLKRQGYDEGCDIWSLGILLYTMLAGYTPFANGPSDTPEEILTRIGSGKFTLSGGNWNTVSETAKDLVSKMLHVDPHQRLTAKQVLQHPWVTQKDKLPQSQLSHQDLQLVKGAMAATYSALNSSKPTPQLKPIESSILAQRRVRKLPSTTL", "UniProt Q16822, whole entry": "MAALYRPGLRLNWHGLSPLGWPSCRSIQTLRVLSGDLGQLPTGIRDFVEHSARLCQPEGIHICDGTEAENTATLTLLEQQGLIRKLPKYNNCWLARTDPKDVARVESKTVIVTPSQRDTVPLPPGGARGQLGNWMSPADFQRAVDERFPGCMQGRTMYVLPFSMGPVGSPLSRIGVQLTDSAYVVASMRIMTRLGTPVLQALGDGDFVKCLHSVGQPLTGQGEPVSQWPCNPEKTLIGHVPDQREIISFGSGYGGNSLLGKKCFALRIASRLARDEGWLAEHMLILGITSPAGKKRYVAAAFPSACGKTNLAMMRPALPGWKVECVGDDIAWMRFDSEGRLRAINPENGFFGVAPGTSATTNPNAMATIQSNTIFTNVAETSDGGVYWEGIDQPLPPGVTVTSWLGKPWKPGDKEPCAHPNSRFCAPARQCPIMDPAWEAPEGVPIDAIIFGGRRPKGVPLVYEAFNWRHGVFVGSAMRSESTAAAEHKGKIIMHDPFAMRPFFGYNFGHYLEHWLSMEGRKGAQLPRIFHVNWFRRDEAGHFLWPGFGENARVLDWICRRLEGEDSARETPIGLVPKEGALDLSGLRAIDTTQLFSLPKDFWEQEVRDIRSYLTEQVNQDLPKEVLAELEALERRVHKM", "UniProt Q1KMD3": "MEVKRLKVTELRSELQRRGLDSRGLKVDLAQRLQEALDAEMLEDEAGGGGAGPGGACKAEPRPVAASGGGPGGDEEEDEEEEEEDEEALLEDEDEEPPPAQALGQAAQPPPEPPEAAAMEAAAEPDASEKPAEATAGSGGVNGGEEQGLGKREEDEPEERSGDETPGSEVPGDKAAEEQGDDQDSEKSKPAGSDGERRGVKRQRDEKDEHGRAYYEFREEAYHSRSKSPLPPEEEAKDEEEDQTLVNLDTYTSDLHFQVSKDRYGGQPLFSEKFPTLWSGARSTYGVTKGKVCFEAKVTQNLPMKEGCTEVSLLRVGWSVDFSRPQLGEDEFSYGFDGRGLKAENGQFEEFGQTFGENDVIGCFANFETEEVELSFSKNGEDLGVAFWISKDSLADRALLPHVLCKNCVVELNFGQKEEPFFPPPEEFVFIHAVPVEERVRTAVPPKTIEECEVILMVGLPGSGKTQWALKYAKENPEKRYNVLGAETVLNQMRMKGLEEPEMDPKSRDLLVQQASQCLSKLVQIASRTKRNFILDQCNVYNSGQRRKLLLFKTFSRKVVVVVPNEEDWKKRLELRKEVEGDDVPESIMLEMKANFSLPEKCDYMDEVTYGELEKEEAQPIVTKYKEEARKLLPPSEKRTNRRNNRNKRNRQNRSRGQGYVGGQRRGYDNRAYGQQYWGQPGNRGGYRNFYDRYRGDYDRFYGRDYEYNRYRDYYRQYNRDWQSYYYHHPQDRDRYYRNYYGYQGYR", "UniProt Q53H80, whole entry": "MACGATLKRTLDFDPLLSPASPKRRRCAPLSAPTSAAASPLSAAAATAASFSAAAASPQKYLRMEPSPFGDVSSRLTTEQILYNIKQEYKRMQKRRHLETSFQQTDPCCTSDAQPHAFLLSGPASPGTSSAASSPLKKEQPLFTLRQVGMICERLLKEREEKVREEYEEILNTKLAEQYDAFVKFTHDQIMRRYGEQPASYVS", "UniProt Q15397": "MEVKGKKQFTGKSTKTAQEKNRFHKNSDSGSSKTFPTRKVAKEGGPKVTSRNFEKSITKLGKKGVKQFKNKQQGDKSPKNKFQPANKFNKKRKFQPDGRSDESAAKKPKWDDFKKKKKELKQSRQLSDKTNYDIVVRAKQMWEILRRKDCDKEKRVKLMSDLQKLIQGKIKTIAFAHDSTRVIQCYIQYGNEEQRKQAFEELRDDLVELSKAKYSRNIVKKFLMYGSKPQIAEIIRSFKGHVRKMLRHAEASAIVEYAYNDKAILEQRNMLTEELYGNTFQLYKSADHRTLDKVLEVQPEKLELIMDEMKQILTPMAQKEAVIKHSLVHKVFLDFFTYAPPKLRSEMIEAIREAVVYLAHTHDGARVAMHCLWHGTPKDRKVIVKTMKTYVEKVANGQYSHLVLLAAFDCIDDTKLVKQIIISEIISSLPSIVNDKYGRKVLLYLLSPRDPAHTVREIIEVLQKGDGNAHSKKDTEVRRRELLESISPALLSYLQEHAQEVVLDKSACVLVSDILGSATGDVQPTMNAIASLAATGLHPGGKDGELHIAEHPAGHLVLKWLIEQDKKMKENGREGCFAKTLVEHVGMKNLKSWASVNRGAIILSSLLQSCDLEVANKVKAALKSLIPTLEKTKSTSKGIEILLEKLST", "UniProt Q15788": "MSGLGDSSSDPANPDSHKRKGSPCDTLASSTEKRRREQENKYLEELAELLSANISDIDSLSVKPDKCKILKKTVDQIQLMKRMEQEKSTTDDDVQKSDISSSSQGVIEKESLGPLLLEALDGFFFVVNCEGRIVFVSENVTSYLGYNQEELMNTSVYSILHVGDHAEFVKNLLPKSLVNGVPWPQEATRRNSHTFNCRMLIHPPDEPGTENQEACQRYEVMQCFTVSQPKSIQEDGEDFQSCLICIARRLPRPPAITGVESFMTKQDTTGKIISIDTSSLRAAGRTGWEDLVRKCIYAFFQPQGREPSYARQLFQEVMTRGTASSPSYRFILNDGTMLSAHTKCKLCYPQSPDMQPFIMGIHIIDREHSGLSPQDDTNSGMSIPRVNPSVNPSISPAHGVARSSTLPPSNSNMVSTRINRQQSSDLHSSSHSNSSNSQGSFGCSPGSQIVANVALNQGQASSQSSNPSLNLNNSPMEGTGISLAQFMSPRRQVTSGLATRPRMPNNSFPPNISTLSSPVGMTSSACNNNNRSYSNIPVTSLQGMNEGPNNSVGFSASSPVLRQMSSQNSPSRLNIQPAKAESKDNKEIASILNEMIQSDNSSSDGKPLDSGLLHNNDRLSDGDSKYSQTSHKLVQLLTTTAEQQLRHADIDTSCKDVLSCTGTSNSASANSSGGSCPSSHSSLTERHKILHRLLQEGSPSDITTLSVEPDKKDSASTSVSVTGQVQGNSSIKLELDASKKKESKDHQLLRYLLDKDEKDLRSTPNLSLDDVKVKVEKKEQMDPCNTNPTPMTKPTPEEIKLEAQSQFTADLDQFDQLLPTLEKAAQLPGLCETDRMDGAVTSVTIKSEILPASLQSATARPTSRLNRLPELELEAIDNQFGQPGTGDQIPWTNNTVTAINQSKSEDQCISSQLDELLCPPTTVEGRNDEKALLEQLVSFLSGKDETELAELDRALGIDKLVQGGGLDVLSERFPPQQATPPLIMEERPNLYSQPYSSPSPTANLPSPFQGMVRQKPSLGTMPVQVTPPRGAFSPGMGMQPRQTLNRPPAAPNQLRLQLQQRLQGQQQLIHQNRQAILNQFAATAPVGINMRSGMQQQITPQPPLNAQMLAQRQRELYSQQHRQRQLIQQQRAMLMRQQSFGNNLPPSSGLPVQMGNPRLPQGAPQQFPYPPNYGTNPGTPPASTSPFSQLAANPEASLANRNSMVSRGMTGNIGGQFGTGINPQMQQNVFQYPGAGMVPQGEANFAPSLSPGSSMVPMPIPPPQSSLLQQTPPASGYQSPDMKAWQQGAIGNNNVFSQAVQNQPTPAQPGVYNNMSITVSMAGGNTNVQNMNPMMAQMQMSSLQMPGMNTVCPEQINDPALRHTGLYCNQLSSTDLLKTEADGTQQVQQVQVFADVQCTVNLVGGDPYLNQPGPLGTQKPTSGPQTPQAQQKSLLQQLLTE", "UniProt Q15436": "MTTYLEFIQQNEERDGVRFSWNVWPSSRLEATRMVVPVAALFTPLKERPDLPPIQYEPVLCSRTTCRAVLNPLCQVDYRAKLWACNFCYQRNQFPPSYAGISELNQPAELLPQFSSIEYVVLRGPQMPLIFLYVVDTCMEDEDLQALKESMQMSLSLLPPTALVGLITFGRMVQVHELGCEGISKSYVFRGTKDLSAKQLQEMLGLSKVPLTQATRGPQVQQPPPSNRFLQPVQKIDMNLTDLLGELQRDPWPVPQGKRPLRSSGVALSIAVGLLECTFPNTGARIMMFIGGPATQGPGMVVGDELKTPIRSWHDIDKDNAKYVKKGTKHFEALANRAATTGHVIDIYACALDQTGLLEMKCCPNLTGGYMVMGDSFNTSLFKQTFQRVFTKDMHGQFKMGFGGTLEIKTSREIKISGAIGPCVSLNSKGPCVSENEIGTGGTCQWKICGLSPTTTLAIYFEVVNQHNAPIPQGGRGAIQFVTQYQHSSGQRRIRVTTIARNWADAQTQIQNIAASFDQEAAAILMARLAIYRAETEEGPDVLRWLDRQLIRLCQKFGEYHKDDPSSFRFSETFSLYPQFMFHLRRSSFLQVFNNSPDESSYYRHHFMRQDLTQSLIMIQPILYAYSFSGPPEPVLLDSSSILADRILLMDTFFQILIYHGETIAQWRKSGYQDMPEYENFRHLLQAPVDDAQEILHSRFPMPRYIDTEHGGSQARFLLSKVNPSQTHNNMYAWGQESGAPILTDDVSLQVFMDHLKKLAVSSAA", "UniProt Q16718, whole entry": "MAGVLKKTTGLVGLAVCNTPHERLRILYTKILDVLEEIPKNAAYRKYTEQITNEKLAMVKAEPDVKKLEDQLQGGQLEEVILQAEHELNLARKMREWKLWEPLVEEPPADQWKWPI", "UniProt Q53EL6": "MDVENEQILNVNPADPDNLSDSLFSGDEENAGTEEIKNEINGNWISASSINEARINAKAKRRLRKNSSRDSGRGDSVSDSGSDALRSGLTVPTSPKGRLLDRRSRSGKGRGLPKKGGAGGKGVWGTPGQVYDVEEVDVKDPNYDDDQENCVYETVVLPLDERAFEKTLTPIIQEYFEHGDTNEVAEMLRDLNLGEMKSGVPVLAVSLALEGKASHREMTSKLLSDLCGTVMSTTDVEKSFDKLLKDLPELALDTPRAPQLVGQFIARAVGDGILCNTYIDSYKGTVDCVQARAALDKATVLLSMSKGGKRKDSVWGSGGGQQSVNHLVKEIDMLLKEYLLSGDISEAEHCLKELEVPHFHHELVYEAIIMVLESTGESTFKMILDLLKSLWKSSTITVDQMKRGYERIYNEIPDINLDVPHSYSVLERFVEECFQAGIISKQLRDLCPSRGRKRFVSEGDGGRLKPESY", "UniProt Q15366, whole entry, looked up": "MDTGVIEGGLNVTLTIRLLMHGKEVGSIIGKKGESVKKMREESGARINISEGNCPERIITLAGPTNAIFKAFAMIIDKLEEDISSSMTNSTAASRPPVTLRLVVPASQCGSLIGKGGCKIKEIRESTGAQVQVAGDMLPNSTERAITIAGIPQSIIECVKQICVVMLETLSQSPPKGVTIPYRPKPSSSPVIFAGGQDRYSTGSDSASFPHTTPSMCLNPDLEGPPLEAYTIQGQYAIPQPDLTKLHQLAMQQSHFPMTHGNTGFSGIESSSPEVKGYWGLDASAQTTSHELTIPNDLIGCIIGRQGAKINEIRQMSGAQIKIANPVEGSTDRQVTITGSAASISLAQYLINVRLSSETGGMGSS"}, "source": "the supplement of paper PMC11006884", "note": "This is a selection; strong and weak results do not stand in their true shares."}
{"compound": "COC(=O)C#Cc1ccccc1 [methyl 3-phenylpropiolate]", "test": "log2 ratio of iodoacetamide-alkyne labeling of the cysteine site, DMSO over compound (competition); higher = stronger covalent engagement of the cysteine by the compound, active = 1 or more", "details": "500 µM; treatment time 1 h; system: HEK293T cell lysate", "in_short": "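Electrophile (500 µM) or vehicle was added to HEK293T lysate (2 mg/mL) for 1 h at ambient temperature before iodoacetamide alkyne labelling (1 h) and click coupling to sCIP-TMT reagents. After pooling, overnight trypsin digestion at 37 °C, streptavidin enrichment and acid elution, peptides were measured by Orbitrap Eclipse LC-MS/MS with FAIMS and quantified in FragPipe. Each cysteine's log2 competition ratio compares mean control-channel with mean compound-channel reporter intensity, control over compound. Data came from duplicate channels across three replicates, excluding cysteines quantified in only one replicate.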"}
{"target": "PAFAH1B3 C55 (UniProt Q15102)", "log2 ratio of iodoacetamide-alkyne labeling": "inactive: 0.0597"}
{"target": "RBBP7 C116 (UniProt Q16576)", "log2 ratio of iodoacetamide-alkyne labeling": "inactive: -0.0161"}
{"target": "SURF2 C127 (UniProt Q15527)", "log2 ratio of iodoacetamide-alkyne labeling": "inactive: 0.293"}
{"target": "KIF14 C47 (UniProt Q15058)", "log2 ratio of iodoacetamide-alkyne labeling": "inactive: 0.247"}
{"target": "TNIP1 C212 (UniProt Q15025)", "log2 ratio of iodoacetamide-alkyne labeling": "inactive: -0.0676"}
{"target": "PPA1 C114 (UniProt Q15181)", "log2 ratio of iodoacetamide-alkyne labeling": "inactive: -0.223"}
{"target": "UniProt Q15365_C118", "log2 ratio of iodoacetamide-alkyne labeling": "active: 1.72"}
{"target": "UniProt Q15418_C552", "log2 ratio of iodoacetamide-alkyne labeling": "inactive: 0.153"}
{"target": "PCK2 C431 (UniProt Q16822)", "log2 ratio of iodoacetamide-alkyne labeling": "inactive: -0.0705"}
{"target": "CCDC93 C282 (UniProt Q567U6)", "log2 ratio of iodoacetamide-alkyne labeling": "inactive: 0.055"}
{"target": "TRIP6 C402 (UniProt Q15654)", "log2 ratio of iodoacetamide-alkyne labeling": "inactive: 0.245"}
{"target": "MED1 C443 (UniProt Q15648)", "log2 ratio of iodoacetamide-alkyne labeling": "inactive: 0.958"}
{"target": "LONRF2 C166 (UniProt Q1L5Z9)", "log2 ratio of iodoacetamide-alkyne labeling": "inactive: 0.0566"}
{"target": "INF2 C1029 (UniProt Q27J81)", "log2 ratio of iodoacetamide-alkyne labeling": "inactive: 0.557"}
{"target": "GLYR1 C303 (UniProt Q49A26)", "log2 ratio of iodoacetamide-alkyne labeling": "inactive: 0.194"}
{"target": "HNRNPUL2 C602 (UniProt Q1KMD3)", "log2 ratio of iodoacetamide-alkyne labeling": "inactive: 0.302"}
{"target": "AKIRIN2 C3 (UniProt Q53H80)", "log2 ratio of iodoacetamide-alkyne labeling": "active: 1.11"}
{"target": "UniProt Q15397_C185", "log2 ratio of iodoacetamide-alkyne labeling": "inactive: 0.0935"}
{"target": "SUZ12 C494 (UniProt Q15022)", "log2 ratio of iodoacetamide-alkyne labeling": "inactive: -0.102"}
{"target": "CDC37 C336 (UniProt Q16543)", "log2 ratio of iodoacetamide-alkyne labeling": "inactive: 0.0656"}
{"target": "EFTUD2 C663 (UniProt Q15029)", "log2 ratio of iodoacetamide-alkyne labeling": "inactive: -0.155"}
{"target": "HSD17B12 C215 (UniProt Q53GQ0)", "log2 ratio of iodoacetamide-alkyne labeling": "inactive: 0.0895"}
{"target": "LRRC41 C297 (UniProt Q15345)", "log2 ratio of iodoacetamide-alkyne labeling": "inactive: 0.692"}
{"target": "UniProt Q15149_C530", "log2 ratio of iodoacetamide-alkyne labeling": "inactive: 0.00328"}
{"target": "LLGL1 C483 (UniProt Q15334)", "log2 ratio of iodoacetamide-alkyne labeling": "inactive: 0.496"}
{"target": "CEP55 C462 (UniProt Q53EZ4)", "log2 ratio of iodoacetamide-alkyne labeling": "inactive: 0.249"}
{"target": "NCOA1 C831 (UniProt Q15788)", "log2 ratio of iodoacetamide-alkyne labeling": "inactive: 0.4"}
{"target": "GEN1 C866 (UniProt Q17RS7)", "log2 ratio of iodoacetamide-alkyne labeling": "inactive: 0.785"}
{"target": "SEC23A C180 (UniProt Q15436)", "log2 ratio of iodoacetamide-alkyne labeling": "inactive: 0.0997"}
{"target": "MED1 C800 (UniProt Q15648)", "log2 ratio of iodoacetamide-alkyne labeling": "inactive: 0.0208"}
{"target": "NDUFA5 C17 (UniProt Q16718)", "log2 ratio of iodoacetamide-alkyne labeling": "inactive: 0.144"}
{"target": "MAP7D1 C373 (UniProt Q3KQU3)", "log2 ratio of iodoacetamide-alkyne labeling": "inactive: 0.815"}
{"target": "FSCN1 C80 (UniProt Q16658)", "log2 ratio of iodoacetamide-alkyne labeling": "inactive: 0.0991"}
{"target": "PDCD4 C350 (UniProt Q53EL6)", "log2 ratio of iodoacetamide-alkyne labeling": "inactive: 0.261"}
{"target": "PCBP2 C301 (UniProt Q15366)", "log2 ratio of iodoacetamide-alkyne labeling": "inactive: 0.396"}
{"target": "UniProt Q2M1P5_C667", "log2 ratio of iodoacetamide-alkyne labeling": "inactive: 0.291"}
{"target": "SETDB1 C987 (UniProt Q15047)", "log2 ratio of iodoacetamide-alkyne labeling": "inactive: -0.18"}
